This is one part of the list.
What follows are targets tested with COc1ccc(Cn2ccc3ccc(C(=O)NO)cc32)cc1 (assay: dose-dependent thermal stabilisation call (2D-TPP, DLPTP, 10% FDR) (binary (1 = stabilised)); higher = stabilised by the compound). Settings: system: HL-60 intact cells; concentration range 0.04-10 µM.

Sequences of proteins named here, by UniProt entry; tags and fusion partners are left off. A change or cut given only in a name is not applied to a line headed by its entry.
UniProt Q7Z2T5: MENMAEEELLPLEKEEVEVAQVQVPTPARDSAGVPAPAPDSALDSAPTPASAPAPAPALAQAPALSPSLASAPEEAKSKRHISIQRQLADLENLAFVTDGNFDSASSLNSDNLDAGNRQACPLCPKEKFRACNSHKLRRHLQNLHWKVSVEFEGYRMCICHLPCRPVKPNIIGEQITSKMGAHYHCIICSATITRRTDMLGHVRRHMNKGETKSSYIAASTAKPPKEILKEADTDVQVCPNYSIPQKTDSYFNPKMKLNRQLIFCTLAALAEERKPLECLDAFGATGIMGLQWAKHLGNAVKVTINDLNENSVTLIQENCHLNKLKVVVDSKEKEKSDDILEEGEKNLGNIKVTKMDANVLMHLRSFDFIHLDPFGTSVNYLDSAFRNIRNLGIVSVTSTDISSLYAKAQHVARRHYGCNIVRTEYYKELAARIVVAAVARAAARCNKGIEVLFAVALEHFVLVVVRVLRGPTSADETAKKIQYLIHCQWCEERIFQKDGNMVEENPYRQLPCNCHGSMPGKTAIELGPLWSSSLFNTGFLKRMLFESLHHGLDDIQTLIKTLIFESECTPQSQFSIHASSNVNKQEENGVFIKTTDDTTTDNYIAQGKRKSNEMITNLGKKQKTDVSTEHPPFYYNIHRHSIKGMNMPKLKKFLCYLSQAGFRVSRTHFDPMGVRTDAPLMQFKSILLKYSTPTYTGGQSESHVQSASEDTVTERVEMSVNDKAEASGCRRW
UniProt Q8N5S9: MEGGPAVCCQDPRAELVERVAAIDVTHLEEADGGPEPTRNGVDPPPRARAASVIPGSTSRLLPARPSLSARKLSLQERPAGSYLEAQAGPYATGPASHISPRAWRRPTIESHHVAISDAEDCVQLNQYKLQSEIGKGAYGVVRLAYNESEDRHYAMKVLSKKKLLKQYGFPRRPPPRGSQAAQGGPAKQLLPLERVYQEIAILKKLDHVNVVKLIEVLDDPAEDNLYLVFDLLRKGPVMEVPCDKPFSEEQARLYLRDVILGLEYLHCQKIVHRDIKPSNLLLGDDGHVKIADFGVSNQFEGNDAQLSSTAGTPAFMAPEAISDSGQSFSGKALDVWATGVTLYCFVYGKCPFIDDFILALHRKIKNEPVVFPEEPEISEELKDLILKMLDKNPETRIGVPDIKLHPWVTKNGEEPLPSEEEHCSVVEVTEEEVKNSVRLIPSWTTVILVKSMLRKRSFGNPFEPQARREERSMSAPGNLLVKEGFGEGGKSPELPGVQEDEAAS
UniProt Q9UJK0: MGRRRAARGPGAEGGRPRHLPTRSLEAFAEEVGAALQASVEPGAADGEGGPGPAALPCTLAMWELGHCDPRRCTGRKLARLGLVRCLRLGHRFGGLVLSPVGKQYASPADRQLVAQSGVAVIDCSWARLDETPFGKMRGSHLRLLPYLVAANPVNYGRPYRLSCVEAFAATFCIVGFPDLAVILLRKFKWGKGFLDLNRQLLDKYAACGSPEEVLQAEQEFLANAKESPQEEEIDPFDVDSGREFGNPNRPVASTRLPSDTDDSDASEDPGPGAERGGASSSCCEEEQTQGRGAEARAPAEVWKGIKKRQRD
UniProt Q8N9R8: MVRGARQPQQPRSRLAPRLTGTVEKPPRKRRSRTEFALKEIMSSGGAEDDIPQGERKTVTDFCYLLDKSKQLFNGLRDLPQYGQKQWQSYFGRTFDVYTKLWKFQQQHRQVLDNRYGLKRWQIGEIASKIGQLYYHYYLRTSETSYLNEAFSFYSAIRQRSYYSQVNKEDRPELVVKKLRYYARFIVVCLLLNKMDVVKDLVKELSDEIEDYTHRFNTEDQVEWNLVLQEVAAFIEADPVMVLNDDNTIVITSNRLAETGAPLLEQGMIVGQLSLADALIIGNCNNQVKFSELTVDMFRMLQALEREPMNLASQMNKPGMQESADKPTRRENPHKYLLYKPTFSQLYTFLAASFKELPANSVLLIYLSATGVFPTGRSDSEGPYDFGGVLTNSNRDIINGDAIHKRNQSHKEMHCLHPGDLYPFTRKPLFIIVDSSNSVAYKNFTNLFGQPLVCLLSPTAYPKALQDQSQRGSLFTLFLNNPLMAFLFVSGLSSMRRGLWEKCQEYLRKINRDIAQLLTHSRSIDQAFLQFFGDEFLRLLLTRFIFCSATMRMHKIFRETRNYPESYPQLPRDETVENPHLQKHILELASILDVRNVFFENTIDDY
UniProt Q8NC60: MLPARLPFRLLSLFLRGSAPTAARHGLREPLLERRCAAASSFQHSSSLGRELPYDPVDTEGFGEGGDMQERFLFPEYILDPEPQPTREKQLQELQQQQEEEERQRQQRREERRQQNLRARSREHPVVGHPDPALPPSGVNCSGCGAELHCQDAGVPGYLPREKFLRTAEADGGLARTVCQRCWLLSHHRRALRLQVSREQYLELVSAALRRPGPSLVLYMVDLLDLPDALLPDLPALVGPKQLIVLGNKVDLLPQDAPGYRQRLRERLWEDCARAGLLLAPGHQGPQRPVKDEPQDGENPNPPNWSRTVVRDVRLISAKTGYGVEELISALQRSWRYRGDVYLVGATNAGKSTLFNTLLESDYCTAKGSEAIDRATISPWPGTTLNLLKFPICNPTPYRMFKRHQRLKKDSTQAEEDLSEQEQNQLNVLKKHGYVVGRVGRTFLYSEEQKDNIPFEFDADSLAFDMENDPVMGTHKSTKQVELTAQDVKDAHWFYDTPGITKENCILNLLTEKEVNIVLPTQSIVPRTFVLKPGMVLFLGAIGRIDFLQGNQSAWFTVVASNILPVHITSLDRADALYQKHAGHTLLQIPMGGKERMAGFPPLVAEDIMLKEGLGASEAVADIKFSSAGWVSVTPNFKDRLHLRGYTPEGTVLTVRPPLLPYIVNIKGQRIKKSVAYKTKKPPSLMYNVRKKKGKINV
UniProt Q9NUS5: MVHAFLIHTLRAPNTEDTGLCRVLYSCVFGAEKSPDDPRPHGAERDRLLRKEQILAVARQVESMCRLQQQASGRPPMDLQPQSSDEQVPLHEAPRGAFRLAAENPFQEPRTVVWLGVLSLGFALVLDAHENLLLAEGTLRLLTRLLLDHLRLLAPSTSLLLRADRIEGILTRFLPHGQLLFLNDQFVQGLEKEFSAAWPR
UniProt Q8WUQ7: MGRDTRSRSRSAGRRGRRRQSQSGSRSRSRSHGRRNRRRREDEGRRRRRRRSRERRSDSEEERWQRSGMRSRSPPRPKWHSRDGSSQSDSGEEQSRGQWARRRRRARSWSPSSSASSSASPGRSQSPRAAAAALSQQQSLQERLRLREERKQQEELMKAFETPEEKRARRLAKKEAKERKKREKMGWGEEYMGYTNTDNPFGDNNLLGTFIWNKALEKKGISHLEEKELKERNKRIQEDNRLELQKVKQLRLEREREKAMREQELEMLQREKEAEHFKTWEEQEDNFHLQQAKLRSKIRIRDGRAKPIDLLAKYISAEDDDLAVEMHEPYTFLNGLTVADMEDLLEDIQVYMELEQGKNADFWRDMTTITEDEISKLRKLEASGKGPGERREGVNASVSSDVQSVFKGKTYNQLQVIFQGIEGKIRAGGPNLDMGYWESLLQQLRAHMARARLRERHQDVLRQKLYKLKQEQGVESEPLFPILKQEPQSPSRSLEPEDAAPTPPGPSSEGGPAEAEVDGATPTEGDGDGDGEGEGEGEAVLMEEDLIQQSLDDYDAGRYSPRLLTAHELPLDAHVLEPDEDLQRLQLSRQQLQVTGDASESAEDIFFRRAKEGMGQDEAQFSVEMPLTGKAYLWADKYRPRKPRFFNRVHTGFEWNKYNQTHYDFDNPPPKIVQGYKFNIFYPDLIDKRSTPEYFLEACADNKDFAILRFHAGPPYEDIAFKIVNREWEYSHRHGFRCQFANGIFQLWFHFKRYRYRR
UniProt P83916, whole entry, looked up: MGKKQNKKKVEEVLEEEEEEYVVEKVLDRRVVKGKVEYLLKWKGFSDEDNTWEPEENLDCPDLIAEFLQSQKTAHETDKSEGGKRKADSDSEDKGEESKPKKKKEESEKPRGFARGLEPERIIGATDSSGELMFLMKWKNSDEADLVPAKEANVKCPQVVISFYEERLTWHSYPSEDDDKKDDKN
UniProt Q9H8G2: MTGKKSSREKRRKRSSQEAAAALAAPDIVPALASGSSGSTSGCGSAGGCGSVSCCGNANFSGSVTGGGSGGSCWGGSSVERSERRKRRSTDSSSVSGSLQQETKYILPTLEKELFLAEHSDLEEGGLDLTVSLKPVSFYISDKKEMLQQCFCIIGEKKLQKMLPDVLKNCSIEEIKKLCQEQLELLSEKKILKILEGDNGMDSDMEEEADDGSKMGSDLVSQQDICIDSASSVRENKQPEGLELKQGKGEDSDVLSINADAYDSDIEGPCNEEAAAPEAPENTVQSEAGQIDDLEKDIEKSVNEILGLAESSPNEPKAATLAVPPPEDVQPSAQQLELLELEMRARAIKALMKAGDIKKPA
UniProt Q9H257: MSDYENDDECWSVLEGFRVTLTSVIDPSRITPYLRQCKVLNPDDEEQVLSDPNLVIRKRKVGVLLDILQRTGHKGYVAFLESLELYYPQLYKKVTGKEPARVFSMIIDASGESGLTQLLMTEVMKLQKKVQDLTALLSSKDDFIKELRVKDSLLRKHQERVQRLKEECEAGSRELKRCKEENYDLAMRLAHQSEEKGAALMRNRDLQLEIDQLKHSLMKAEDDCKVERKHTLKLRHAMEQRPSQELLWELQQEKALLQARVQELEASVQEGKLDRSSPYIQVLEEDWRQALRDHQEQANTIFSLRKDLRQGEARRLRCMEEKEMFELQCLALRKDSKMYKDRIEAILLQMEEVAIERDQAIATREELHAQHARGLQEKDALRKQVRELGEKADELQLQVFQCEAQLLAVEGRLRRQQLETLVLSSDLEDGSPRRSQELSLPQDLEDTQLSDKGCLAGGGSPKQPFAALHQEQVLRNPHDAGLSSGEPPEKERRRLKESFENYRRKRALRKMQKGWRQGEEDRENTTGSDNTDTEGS
UniProt Q5TEJ8: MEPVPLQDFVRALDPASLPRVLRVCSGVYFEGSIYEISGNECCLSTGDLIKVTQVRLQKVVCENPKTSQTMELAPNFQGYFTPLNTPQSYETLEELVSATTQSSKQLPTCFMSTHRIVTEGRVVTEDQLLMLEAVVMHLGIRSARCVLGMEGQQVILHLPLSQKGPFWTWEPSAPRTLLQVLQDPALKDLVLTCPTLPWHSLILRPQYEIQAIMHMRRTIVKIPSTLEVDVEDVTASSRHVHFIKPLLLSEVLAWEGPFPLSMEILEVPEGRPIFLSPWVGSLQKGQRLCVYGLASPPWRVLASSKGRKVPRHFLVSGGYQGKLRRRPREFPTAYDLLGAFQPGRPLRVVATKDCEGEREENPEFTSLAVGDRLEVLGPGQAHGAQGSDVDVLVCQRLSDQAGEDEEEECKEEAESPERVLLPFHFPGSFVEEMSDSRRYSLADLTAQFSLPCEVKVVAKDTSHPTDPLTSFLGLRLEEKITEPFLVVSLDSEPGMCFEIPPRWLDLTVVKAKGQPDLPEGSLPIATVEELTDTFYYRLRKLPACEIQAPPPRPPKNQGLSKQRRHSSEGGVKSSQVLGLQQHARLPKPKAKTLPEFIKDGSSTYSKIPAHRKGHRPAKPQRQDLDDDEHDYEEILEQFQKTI
UniProt Q8N6M3: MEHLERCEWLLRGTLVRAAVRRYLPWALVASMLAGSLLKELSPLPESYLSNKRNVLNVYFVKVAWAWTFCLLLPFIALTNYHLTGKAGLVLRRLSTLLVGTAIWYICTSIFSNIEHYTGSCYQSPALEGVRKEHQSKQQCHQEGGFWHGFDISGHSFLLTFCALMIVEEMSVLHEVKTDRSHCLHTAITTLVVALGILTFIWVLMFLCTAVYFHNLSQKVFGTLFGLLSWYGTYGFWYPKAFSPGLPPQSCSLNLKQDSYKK
UniProt Q8WUR7: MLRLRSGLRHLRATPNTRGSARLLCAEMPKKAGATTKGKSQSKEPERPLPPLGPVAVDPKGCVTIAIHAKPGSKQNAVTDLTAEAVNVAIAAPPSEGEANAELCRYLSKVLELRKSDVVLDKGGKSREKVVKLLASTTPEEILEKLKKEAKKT
UniProt Q9NPA0: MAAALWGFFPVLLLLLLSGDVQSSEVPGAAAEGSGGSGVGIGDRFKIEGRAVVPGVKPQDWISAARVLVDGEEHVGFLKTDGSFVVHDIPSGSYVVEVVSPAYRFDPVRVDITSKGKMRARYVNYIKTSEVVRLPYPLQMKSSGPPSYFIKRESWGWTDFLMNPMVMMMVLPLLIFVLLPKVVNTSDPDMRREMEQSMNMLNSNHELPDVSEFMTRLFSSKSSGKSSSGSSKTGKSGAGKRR
UniProt Q86UD0: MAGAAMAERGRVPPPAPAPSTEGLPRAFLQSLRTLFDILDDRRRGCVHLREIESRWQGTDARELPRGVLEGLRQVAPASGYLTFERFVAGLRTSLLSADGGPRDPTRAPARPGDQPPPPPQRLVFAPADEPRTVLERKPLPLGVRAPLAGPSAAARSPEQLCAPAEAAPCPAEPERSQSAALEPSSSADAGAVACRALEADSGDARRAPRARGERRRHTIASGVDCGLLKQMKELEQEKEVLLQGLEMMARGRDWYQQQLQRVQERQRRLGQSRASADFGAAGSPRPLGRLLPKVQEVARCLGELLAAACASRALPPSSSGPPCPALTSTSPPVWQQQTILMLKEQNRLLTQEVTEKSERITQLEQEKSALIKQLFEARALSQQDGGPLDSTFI

Target	dose-dependent thermal stabilisation call
C6ORF134 (UniProt Q5SQI0)	inactive: 0
CASC5 (UniProt Q8NG31)	inactive: 0
C1ORF25 (UniProt Q7Z2T5)	inactive: 0
C5ORF51 (UniProt A6NDU8)	inactive: 0
CAMKK1 (UniProt Q8N5S9)	inactive: 0
C16ORF42 (UniProt Q9UJK0)	inactive: 0
C9ORF126 (UniProt Q8N9R8)	inactive: 0
C15ORF15 (UniProt Q9UHA3)	inactive: 0
C4ORF14 (UniProt Q8NC60)	inactive: 0
C7ORF26 (UniProt Q96N11)	inactive: 0
C3ORF17 (UniProt Q6NW34)	inactive: 0
C20ORF29 (UniProt Q9NUS5)	inactive: 0
C19ORF29 (UniProt Q8WUQ7)	inactive: 0
CA2 (UniProt P00918)	inactive: 0
C4ORF16 (UniProt Q63HQ0)	inactive: 0
C14ORF104 (UniProt Q9NVR5)	inactive: 0
CBX1 (UniProt P83916)	inactive: 0
C1ORF52 (UniProt Q8N6N3)	inactive: 0
C9ORF82 (UniProt Q9H8G2)	inactive: 0

2 entries picked at random from those above:
Target	dose-dependent thermal stabilisation call
C15ORF15 (UniProt Q9UHA3)	inactive: 0
C1ORF52 (UniProt Q8N6N3)	inactive: 0

(next part)

Target	dose-dependent thermal stabilisation call
CARD9 (UniProt Q9H257)	inactive: 0
C1ORF38 (UniProt Q5TEJ8)	inactive: 0
C1ORF69 (UniProt Q5T440)	inactive: 0
C20ORF142 (UniProt Q8N6M3)	inactive: 0
C17ORF81 (UniProt Q8TE02)	inactive: 0
C20ORF24 (UniProt Q9BUV8)	inactive: 0
C19ORF43 (UniProt Q9BQ61)	inactive: 0
C8ORF59 (UniProt Q8N0T1)	inactive: 0
C19ORF61 (UniProt Q9H0W8)	inactive: 0
C15ORF40 (UniProt Q8WUR7)	inactive: 0
C14ORF156 (UniProt Q9GZT3)	inactive: 0
C9ORF6 (UniProt Q9NX38)	inactive: 0
CC2D1B (UniProt Q5T0F9)	inactive: 0
C15ORF24 (UniProt Q9NPA0)	inactive: 0
C20ORF43 (UniProt Q9BY42)	inactive: 0
C20ORF11 (UniProt Q9NWU2)	inactive: 0
C22ORF9 (UniProt Q6ICG6)	inactive: 0
C7ORF27 (UniProt Q6PJG6)	inactive: 0
C9ORF140 (UniProt Q86UD0)	inactive: 0

From the supplement of paper PMC7666118
